Reference: paper PMC4363203
These are yes or no findings as the source states them, for the method shown. Binding seen in cells or lysates may run through a third protein. Some entries that bind do so weakly or less than the wild type.

Amino acid sequences for entries named in this document (tags omitted).
UniProt Q9UER7: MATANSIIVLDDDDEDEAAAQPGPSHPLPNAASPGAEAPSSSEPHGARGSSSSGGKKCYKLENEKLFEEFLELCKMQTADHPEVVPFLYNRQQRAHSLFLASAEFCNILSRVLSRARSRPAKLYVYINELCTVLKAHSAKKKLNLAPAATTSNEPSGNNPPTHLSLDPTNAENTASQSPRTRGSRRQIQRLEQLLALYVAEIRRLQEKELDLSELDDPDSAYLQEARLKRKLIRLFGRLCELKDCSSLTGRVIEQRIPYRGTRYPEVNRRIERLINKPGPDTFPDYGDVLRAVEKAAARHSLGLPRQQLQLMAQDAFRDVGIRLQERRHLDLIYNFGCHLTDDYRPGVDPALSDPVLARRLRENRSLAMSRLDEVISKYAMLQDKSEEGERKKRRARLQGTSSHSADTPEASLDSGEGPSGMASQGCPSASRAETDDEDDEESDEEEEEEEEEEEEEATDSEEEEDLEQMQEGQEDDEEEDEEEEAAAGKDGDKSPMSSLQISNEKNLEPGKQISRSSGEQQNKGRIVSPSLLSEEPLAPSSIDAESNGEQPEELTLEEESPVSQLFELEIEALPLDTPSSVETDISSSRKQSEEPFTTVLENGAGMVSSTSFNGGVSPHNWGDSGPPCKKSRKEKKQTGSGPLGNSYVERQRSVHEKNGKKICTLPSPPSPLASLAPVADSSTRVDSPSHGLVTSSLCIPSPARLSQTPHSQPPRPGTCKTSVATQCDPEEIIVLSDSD
UniProt P46100: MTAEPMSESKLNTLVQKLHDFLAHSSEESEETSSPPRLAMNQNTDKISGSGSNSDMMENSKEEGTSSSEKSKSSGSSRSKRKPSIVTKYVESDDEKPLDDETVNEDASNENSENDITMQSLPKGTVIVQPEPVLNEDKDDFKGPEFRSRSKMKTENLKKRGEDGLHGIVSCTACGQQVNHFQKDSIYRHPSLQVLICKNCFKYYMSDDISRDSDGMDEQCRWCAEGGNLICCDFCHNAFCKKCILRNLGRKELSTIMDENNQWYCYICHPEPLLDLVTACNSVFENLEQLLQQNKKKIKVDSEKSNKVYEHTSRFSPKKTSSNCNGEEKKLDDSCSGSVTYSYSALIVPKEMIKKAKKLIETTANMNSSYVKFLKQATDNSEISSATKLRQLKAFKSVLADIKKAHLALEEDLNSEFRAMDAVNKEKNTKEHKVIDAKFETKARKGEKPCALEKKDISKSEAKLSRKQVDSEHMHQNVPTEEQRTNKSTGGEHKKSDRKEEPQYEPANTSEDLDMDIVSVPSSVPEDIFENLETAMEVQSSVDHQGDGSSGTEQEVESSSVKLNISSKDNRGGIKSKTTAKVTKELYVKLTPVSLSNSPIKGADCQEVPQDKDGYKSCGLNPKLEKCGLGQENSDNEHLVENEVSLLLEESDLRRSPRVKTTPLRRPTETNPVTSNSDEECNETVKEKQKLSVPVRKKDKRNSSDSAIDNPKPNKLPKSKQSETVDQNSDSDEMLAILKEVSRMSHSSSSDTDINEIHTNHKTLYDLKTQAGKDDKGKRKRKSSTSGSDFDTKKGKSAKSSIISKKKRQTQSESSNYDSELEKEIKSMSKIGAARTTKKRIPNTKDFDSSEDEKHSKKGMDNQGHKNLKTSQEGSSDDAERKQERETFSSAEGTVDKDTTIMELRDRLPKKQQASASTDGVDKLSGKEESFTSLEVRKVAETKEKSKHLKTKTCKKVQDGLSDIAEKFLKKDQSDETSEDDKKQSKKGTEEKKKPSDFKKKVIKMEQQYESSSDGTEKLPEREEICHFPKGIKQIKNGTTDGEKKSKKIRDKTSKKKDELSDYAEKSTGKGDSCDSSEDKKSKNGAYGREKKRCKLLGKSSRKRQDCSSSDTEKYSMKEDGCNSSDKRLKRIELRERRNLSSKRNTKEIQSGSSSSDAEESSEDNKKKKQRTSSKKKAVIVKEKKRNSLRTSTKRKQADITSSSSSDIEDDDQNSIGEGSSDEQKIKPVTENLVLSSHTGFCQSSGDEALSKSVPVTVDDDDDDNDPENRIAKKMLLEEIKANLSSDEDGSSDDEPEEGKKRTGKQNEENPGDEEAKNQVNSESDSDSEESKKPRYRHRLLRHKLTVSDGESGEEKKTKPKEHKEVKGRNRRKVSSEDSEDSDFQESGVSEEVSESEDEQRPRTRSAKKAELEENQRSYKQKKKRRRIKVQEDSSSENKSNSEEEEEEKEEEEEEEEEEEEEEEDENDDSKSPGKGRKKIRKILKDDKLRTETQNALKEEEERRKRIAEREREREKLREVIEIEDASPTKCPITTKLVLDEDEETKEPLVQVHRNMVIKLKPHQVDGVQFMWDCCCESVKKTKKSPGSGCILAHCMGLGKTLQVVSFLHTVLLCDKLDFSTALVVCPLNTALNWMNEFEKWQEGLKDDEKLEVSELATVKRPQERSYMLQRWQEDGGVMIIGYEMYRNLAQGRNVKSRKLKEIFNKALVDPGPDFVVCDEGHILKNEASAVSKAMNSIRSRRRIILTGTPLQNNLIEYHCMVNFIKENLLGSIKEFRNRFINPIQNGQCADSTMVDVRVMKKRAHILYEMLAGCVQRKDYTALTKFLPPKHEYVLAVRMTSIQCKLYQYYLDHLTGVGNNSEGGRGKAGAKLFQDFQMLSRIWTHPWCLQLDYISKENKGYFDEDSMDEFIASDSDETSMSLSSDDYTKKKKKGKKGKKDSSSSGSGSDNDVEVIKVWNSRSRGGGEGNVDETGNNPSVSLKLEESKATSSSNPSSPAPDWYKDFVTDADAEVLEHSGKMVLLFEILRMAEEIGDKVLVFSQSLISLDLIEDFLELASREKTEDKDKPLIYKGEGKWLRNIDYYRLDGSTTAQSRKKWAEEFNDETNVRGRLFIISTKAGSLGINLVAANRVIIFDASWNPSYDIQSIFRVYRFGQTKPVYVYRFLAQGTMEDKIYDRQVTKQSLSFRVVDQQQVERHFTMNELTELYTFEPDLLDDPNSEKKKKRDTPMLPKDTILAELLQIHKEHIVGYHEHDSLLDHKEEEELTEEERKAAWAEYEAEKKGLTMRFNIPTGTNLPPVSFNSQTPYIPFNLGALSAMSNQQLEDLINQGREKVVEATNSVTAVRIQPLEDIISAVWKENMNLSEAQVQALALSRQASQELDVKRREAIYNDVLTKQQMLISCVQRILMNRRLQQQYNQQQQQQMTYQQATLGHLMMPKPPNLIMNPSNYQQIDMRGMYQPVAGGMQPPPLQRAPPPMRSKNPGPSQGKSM

Molecular target: T1, centromere protein B (CENP-B), inner kinetochore protein (human (endogenous in HcoEpiC, HeLa and SW480)) (UniProt P07199)
T1 sequence: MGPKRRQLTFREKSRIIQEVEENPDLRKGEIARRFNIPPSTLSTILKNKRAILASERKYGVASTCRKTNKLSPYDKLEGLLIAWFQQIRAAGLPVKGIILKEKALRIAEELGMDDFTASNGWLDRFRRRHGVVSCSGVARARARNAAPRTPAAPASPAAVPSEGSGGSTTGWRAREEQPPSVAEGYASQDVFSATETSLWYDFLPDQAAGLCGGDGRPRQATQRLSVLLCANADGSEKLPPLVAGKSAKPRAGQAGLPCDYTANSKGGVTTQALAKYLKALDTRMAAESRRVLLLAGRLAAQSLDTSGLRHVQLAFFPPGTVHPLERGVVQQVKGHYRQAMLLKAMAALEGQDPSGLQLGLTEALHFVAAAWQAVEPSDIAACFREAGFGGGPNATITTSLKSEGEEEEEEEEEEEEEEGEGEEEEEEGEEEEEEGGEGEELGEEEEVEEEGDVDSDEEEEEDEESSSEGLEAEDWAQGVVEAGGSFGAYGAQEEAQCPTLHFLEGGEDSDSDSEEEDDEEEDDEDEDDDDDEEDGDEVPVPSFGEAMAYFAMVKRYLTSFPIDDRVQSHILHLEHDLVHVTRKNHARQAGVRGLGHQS
Assay: co-IP; native chromatin IP with anti-CENP-B from MNase-digested nuclear chromatin (mostly mono-, di- and tri-nucleosomal arrays) extracted in low salt buffer (0.5X PBS, 5 mM EGTA) overnight at 4°C; normal colon, HeLa and SW480 cells; quantitative two-color fluorescent western blot

| Substance | binding |
| --- | --- |
| DAXX, transcription-coupled histone chaperone (from UniProt Q9UER7 1-740) | binds |
| centromere protein A (CENP-A), histone H3 variant (from UniProt P49450 1-140) (other; other documents disagree on this pair) | binds |
| ATRX, transcription-coupled histone chaperone (from UniProt P46100 1-2492) | binds |
